No constants are given. Whether binding was seen depends on the method and setting. Binding seen in cells or lysates may run through a third protein. Some results given as binding are weak or reduced against the parent protein; the word gives no strength. Tags and fused reporters may be left off the sequences shown.
Molecular target: T1, V5-tagged CENPB expressed in H1299 cells (human) (UniProt P07199)
T1 sequence: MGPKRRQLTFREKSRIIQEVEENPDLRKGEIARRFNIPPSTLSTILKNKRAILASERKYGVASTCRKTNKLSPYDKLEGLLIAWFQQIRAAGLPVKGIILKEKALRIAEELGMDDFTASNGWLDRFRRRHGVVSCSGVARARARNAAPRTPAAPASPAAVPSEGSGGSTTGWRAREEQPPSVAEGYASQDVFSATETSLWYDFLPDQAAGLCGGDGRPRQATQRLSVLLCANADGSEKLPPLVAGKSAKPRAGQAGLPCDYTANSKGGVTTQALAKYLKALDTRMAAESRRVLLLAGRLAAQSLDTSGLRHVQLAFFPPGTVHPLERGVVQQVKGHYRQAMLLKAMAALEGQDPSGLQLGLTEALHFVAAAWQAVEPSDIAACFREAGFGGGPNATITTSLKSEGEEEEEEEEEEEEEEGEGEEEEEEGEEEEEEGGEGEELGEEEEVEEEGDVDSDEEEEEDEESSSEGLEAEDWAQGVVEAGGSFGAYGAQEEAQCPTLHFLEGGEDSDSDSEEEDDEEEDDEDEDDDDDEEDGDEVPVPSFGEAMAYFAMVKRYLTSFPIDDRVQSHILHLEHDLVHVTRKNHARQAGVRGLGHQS
Experiment: co-immunoprecipitation with anti-Plk1 antibodies from transfected H1299 cells, immunoblot for CENPB

Amino acid sequences for entries named in this document (tags omitted). A change or cut given only in a name is not applied to a line headed by its entry.
UniProt P53350: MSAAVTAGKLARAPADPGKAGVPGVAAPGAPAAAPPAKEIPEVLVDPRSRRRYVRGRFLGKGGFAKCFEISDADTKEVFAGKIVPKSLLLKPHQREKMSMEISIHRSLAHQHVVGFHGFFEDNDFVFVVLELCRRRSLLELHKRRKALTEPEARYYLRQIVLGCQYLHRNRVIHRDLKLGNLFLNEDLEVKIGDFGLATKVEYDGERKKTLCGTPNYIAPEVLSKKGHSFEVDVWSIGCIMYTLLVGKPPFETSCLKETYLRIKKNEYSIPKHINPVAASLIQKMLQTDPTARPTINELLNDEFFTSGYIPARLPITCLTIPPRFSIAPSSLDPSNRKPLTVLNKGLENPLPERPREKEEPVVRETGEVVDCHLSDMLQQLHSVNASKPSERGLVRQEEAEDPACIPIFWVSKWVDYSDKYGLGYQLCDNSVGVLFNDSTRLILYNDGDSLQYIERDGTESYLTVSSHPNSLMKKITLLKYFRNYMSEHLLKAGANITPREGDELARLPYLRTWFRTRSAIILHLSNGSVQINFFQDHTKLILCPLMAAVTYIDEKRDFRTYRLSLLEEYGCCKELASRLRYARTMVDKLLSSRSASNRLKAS

His-tagged Plk1 expressed in H1299 cells (from UniProt P53350 1-603) (enzyme)
binding: binds
